Some entries share one result that the patent states for a list of compounds.
Test system: basilar arteries
Experiment: Vasoconstrictive activity on basilar artery
Design: species or system pigs
Conditions: pig basilar artery segments, organ bath; response relative to serotonin 3×10^−7 M; estimated from three preparations; read-out: ED50-value (concentration causing 50% of the constrictive response obtained with serotonin)
Method: C.2 Vasoconstrictive Activity on Basilar Artery
Segments of basilar arteries taken from pigs (anaesthetised with sodium pentobarbital) were mounted for recording of isometric tension in organ baths. The preparations were bathed in Krebs-Henseleit solution. The solution was kept at 37° C. and gassed with a mixture of 95% O2-5% CO2. The preparations were stretched until a stable basal tensions of 2 grams was obtained.
The preparations were made to constrict with serotonin (3×10^−7 M). The response to the addition of serotonin was measured and subsequently the serotonin was washed away. This procedure was repeated until stable responses were obtained. Subsequently the test compound was administered to the organ bath and the constriction of the preparation was measured. This constrictive response was expressed as a percentage of the response to serotonin as measured previously.

Substance | EC50 [nM]
(RR,SS)-1-[1-[2-(3,4-dihydro-2H-1-benzopyran-2-yl)-2-hydroxyethyl]-4-piperidinyl]-2-imidazolidinone [Compound 20] | > 1000
(±)-(R*,S*)-1-[1,-[2-(3,4-dihydro-8-hydroxy-2H-1-benzopyran-2-yl)-2-hydroxyethyl]-4-piperidinyl]-3,4,5,6-tetrahydro-2(1H)-pyrimidinone [Compound 141] | > 1000

Source: patent publication US6747045B2, “(Benzodioxan, benzofuran or benzopyran) derivatives having fundic relaxation properties” (Janssen Pharmaceutica N.V., priority 1997, dated 2004)
